Publication PMC9629626

T1: GBPL3-TurboID-3HA (Arabidopsis) (UniProt F4KG14)
T1 sequence: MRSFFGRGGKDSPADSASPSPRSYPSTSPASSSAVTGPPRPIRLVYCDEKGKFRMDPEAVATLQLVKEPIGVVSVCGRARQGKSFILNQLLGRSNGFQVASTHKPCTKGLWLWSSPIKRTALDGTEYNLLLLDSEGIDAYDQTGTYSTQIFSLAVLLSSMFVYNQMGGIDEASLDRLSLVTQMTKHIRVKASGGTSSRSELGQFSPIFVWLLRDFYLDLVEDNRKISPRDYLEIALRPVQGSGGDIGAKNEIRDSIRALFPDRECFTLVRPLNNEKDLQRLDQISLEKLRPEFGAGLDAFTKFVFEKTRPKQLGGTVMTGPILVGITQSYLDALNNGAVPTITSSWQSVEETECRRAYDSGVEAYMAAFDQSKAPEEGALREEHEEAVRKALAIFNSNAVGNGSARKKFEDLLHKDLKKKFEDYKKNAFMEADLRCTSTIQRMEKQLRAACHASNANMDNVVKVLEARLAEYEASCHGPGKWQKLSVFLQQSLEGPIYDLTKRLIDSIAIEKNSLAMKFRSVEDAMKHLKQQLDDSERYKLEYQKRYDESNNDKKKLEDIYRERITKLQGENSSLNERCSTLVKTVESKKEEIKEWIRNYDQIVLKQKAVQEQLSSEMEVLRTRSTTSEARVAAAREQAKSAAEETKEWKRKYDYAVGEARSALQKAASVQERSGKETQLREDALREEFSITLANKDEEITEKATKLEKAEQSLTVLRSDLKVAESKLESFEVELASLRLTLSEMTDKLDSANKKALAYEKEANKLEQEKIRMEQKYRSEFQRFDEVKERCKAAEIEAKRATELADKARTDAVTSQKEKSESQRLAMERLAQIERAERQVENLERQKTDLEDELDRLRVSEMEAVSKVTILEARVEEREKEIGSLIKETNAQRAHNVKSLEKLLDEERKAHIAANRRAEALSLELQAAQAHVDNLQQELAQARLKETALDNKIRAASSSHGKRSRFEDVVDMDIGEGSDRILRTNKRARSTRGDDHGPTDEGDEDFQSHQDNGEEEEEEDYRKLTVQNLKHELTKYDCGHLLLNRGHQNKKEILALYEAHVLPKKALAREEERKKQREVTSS


These binders were tested against T1, GBPL3-TurboID-3HA (Arabidopsis) (assay: proximity labelling; GBPL3-TurboID-3HA (native promoter) as bait in 1-week-old Arabidopsis seedlings, 50 uM biotin 4 h at room temperature; biotinylated proteins on streptavidin beads; label-free quantitative mass spectrometry; cutoffs fold-change > 4, p < 0.01 against wild-type non-transformants; 2 biological replicates).

Binder | binding
F OLIGOURIDYLATE BINDING PROTEIN 1C (UBP1C) (protein, UniProt Q9LJH8 1-427) MQNPRLKQHQQQQQQQAMMQQQALMQQHSLYHPGVLAPPQLEPVPSGNLPPGFDPSTCRSVYVGNIHTQVTEPLLQEIFTSTGPVESSKLIRKDKSSYGFVHYFDRRSAALAILSLNGRHLFGQPIKVNWAYATGQREDTSSHFNIFVGDLSPEVTDATLYQSFSVFSSCSDARVMWDQKTGRSRGFGFVSFRNQQDAQTAINEMNGKWLSSRQIRCNWATKGATSGDDKLSSDGKSVVELTTGSSEDGKETLNEETPENNSQFTTVYVGNLAPEVTQLDLHRYFHALGAGVIEEVRVQRDKGFGFVRYNTHPEAALAIQMGNTQPYLFNRQIKCSWGNKPTPPGTASNPLPPPAPAPVPGLSAADLLNYERQLALSKMASVNALMHQQGQHPLRQAHGINAAGATAAMYDGGFQNVAAAQQLMYYQ | binds
SNW/SKI-… PROTEIN (SKIP) (protein, UniProt O80653 1-613) MKSLNDLPAPKSTTTTYYDHSNDAWFKNRVTESETVKSSSIKFKVVPAYLNRQGLRPKNPEDFGDGGAFPEIHLPQYPLLMGKNKSNKPGAKTLPVTVDAQGNVVFDAIVRQNENSRKIVYSQHKDIIPKFLKNEGDLGTVVDEEEELQKEIQETAEETKAAIEKIVNVRLSAAQPSNIARQSGDSQYIKYKPSQQSSAFNSGAKERIIRMVEMPVDPLDPPKFKHKRVPRASGSPPVPVMHSPPRPVTVKDQQDWKIPPCISNWKNPKGYTIPLDKRLAADGRGLQDVQINDNFAKLSEALYVAEQKAREAVSMRSKVQKEMVMKDKERKEQELRALAQKARSERTGAAMSMPVSSDRGRSESVDPRGDYDNYDQDRGREREREEPQETREEREKRIQREKIREERRRERERERRLDAKDAAMGKKSKITRDRDRDISEKVALGMASTGGKGGGEVMYDQRLFNQDKGMDSGFAADDQYNLYDKGLFTAQPTLSTLYKPKKDNDEEMYGNADEQLDKIKNTERFKPDKAFTGASERVGSKRDRPVEFEKEEEQDPFGLEKWVSDLKKGKKPLDKIGSGGTMRASGGGGSSSRDDDHGGSGRTKINFERSDRR | binds
CRWN4 (protein, UniProt Q9FLH0 1-1010) MATSSRSERFPITPSTAATNRLTITPNSRVLKSPLTEEIMWKRLKDAGFDEQSIKNRDKAALIAYIAKLESEVYDYQHNMGLLLLEKNELSSQYEEIKASVDESDLTHMREKSAYVSALAEAKKREESLKKDVGIAKECISSLEKTLHEMRAECAETKVSAGSTMSEAHVMIEDALKKLADAEAKMRAAEALQAEANRYHRIAERKLKEVESREDDLTRRLASFKSECETKENEMVIERQTLNERRKSLQQEHERLLDAQVSLNQREDHIFARSQELAELEKGLDTAKTTFEEERKAFEDKKSNLEIALALCAKREEAVSERESSLLKKEQELLVAEEKIASKESELIQNVLANQEVILRKRKSDVEAELECKSKSVEVEIESKRRAWELREVDIKQREDLVGEKEHDLEVQSRALAEKEKDITEKSFNLDEKEKNLVATEEDINRKTTMLEDEKERLRKLDLELQQSLTSLEDKRKRVDSATQKLEALKSETSELSTLEMKLKEELDDLRAQKLEMLAEADRLKVEKAKFEAEWEHIDVKREELRKEAEYITRQREAFSMYLKDERDNIKEERDALRNQHKNDVESLNREREEFMNKMVEEHSEWLSKIQRERADFLLGIEMQKRELEYCIENKREELENSSRDREKAFEQEKKLEEERIQSLKEMAEKELEHVQVELKRLDAERLEIKLDRERREREWAELKDSVEELKVQREKLETQRHMLRAERDEIRHEIEELKKLENLKVALDDMSMAKMQLSNLERSWEKVSALKQKVVSRDDELDLQNGVSTVSNSEDGYNSSMERQNGLTPSSATPFSWIKRCTNLIFKTSPEKSTLMHHYEEEGGVPSEKLKLESSRREEKAYTEGLSIAVERLEAGRKRRGNTSGDETSEPSNNKKRKHDVTQKYSDEADTQSVISSPQNVPEDKHELPSSQTQTPSGMVVISETVKITRVTCETEVTNKVTTLDCSESPSEAGRKMGEETEDGDCNQTGINASETVIHNEAATEDICT | binds
KAKU4 (protein, UniProt Q949W6 1-485) MDSVSGYAAGAGQPRVGGKIVRPRRTAVVRTPCERPVQRSRDPPQQNPSWISRLVYKPASVIASGAGKFISSVVFSDSSSSSEEDEDSSSDIDGDEDVEKNNPDFTEEDLLSAQQPSIQRLSSKRVIEQLLLQETFAREEGDRLIDIIKARVVDHPSVPSAIETSHDDYGLTSDVNVGEMSNTAVMEARKWLEEKKSGSSSKYKATEDGAGSPVDVAKSYMRARLPWGSPAANNLDFRSPSSARVQGTPLPYSAGNFSSSKLKRKSGSNQSWNIQDEIRKVRAKATEEMLKSPSSVASLEPKYSPYVLATDMLKGNASSLNADGAVRNEQSRALPNSAIPTSEHNQTTEANQAVKETGVLHTRSRGVGLEETFISTQGVKPSEDTNTAPQSGTAVDDFNDQDGDFIQPTSTIGNTTNAVLALGATLDPTGNSCIPKDVFETSKEADEIGASRHTSNGFPSSSPSGYGRSTKTHTTRRNQGFSAYS | binds
Nup50a (protein, UniProt Q9C829 1-440) MGDSENVQQPSKKRGALKQLSRDNPGLDDDDDSAELESGTFKKASDEVLASRRIVRVKRKEPSAAPVAASNPFAGIQLVPTTAPASTPVGTNAPLAESKLAPAEAVVEDNQKASDIEEGDEVDSKKVDVKDAVGEETEKTKDKDDNHCGKSADVQVAATEVAQMVSCDTNVCNNAVEGTDQTDFPLEKDSGGDQAEKKEKEGNGIEEADKNGDNGAFSSFQQHSSNKNAFTGLASTEASGSSFSFGLVSQDGSTGTGSLFGFGLPSSNSSSIFGATGSSIIKKSEGSGFPPKQEVSTETGEENEKVAFSADSIMFEYLDGGWKERGKGELKVNVSSNDGKARLVMRAKGNYRLILNASLYPEMKLANMDKKGITFACVNSVSEGKEGLSTFALKFKDPTIVEEFRVAIDKHKDSKPMEKAAEKSALPLKTPENSPTATDT | binds

Results are given in words; binding and its absence hold for the method and conditions named. Binding seen in cells or lysates may run through a third protein. A yes stands for co-enrichment or nearness to the bait. Other partners may have been found.
